Experimental data published in US20210348119A1, “COMPOSITIONS AND METHODS FOR CELL CULTURE” (The United States of America as Represented By The …, priority 2018, published 2021).
Counter-ions that a name gives are not always drawn.

test system: H9 cells; assay: qHTS for survival of dissociated H9 cells (CellTiter-Glo, 24 hours after seeding); assay type: cell-based, human; conditions: curve class per Huang et al. 2011
Excerpt: FIG. 2 schematically illustrates qHTS procedure.
All the screed compounds were received pre-plated at the pre-determined concentrations. […] Curve classification is explained in Huang et al. “Chemical genomics profiling of environmental chemical modulation of human nuclear receptors” Environ. Health. Perspect.

| Compound | CC (curve class) |
| --- | --- |
| C=C(CO)C(=O)O[C@H]1CC(=C)[C@@H]2C[C@H](O)C(=C)[C@@H]2[C@H]2OC(=O)C(=C)[C@@H]21 [NCGC00168845-02] | 2 |
| Cc1cnc(Nc2ccc(OCCN3CCCC3)cc2)nc1Nc1cccc(S(=O)(=O)NC(C)(C)C)c1 [TG-101348] | 3 |
| CC1(CCOC2OC(CO)C(O)C(O)C2O)CCC23OC2(C1)C(O)CC1C(C)(C(=O)O)CCCC13C (stereo not drawn) [NCGC00380931-01] | 2 |
| Clc1ccc(C2(c3ccc(-c4cn[nH]c4)cc3)CCNCC2)cc1 [AT-7867] | 1 |
| COC(=O)c1cc(Br)cnc1N1CCC(NC2CCCCC2)C(O)C1 (stereo not drawn) [NCGC00386932-01] | −1 |
| CCn1c(-c2nonc2N)nc2c(C#CCO)ncc(OCCCN)c21 [AKT Kinase Inhibitor] | 4 |
| O=C(O)Cc1cc(I)c(Oc2cc(I)c(O)c(I)c2)c(I)c1 [TETRAC] | 1 |
| C=C1CC[C@@H]2[C@@](C)(CO[C@@H]3O[C@H](CO)[C@@H](O)[C@H](O)[C@H]3O)[C@H](O)CC[C@@]2(C)[C@@H]1CC/C(C)=C/CO[C@@H]1O[C@H](CO)[C@@H](O)[C@H](O)[C@H]1O [NCGC00385284-01] | −1 |
| CC1=NN(c2ccccc2)C(=O)C1 [Edaravone] | 4 |
| CC(C)CCC(=O)CC1c2ccccc2C(=O)N1c1ccc2ccc(Cl)nc2n1 (single isomer, unassigned; (+)) [(+)-Pagoclone] | 4 |
| Cc1nc(N2CCN(C(=O)c3ccco3)CC2)c2c3c(sc2n1)CCCC3 [ML192] | 4 |
| COc1ccccc1-c1c[nH]c2ncc(-c3cncc(C(=O)N(C)C)c3)cc12 [PPY A] | 3 |
| O=S(=O)(NCC1CC1)c1ccc(Nc2nccc(N3CCCc4cc(O)ccc43)n2)cc1 [Pyrintegrin] | 2 |
| CN(C)CCOc1cc(-c2cn[nH]c2)ccc1NC(=O)C1COc2ccccc2O1 (stereo not drawn) [SR-3677] | 1 |
| C[S+]([O-])c1ccc(-c2nc(-c3ccncc3)c(-c3ccc(F)cc3)[nH]2)cc1 (stereo not drawn) [SB-203580] | 3 |
| C[C@@H](N)c1ccc(C(=O)Nc2ccnc3[nH]ccc23)cc1 [Y-39983] | 1 |
| COCC(=O)NC/C=C/c1ccc2ncnc(Nc3ccc(Oc4ccc(C)nc4)c(C)c3)c2c1 [CP-724714] | 2 |
| C[C@H]1[C@H](C)CC[C@]2(C(=O)O)CC[C@]3(C)C(=CC[C@@H]4[C@@]5(C)CC[C@H](O)C(C)(C)[C@@H]5CC[C@]43C)[C@H]12 [URSOLIC ACID] | 4 |
| NC1(Cc2ccc(Cl)cc2)CCN(c2ncnc3[nH]ccc23)CC1 [CCT-128930] | 3 |
| (−)-Indolactam V | 1 |

| Compound | CC (curve class) |
| --- | --- |
| CC(C)[C@H](NC(=O)c1ccc2ccccc2n1)C(=O)N[C@@H](CC(=O)O)C(=O)COc1c(F)cccc1F [Q-VD-OPh hydrate] | 1 |
| CC1=C(C(=O)Nc2cc3cn[nH]c3cc2F)C(c2ccc(Cl)cc2F)N=C(c2ccnc(Cl)c2)N1 (stereo not drawn) [GSK-25] | 1 |
| COc1ccc2c(c1O)OC[C@H]1c3ccc(O)cc3O[C@@H]21 [NCGC00384860-01] | 2 |
| O=S(=O)(c1cccc2cnccc12)N1CCCNCC1 [Fasudil hydrochloride] | 3 |
| N#Cc1cc(-c2ccnc(Nc3ccc(N4CCOCC4)cc3)n2)ccc1OC1CCOCC1 [IKK epsilon-IN-1] | 2 |
| CCC(=O)N1CCN(c2ccc(-n3c(=O)ccc4cnc5ccc(-c6cnc7ccccc7c6)cc5c43)cc2C(F)(F)F)CC1 [Torin-1] | 2 |
| Cl.O=c1[nH]c([C@@H]2CCCN2)nc2c1oc1ccc(Cl)cc12 [BMS-863233 (XL-413)] | 2 |
| O=C(c1ccc(/C=C/c2n[nH]c3ccccc23)cc1)N1CCNCC1 [KW-2449] | 3 |
| CC[C@@](C)(Nc1ccnc(-c2c[nH]c3ncccc23)n1)C(=O)NCC(F)(F)F [Decernotinib] | 1 |
| O=C(Nc1ccc(-c2ccnc(Nc3ccc(N4CCOCC4)cc3)n2)cc1)[C@@H]1CCCN1 [XL-19] | 3 |
| C/C=C(/C)C(=O)O[C@H]1C(C)=C[C@]23C(=O)[C@@H](C=C(CO)[C@@H](O)[C@]12O)[C@H]1[C@@H](C[C@H]3C)C1(C)C [Ingenol mebutate] | 1 |
| Cc1c(O)c(O)cc2c1CC=C1[C@@]2(C)CC[C@@]2(C)[C@@H]3C[C@](C)(C(=O)O)CC[C@]3(C)CC[C@]12C [DIHYDROCELASTROL] | 2 |
| O=C(NCc1ccccc1)c1csc(Nc2ccncn2)n1 [Thiazovivin] | 1 |
| CC1(C)CC[C@]2(C(=O)O[C@@H]3O[C@H](CO[C@@H]4O[C@H](CO)[C@@H](O)[C@H](O)[C@H]4O[C@@H]4O[C@H](CO)[C@H](O)[C@H](O)[C@H]4O)[C@@H](O)[C@H](O[C@@H]4O[C@H](CO)[C@@H](O)[C@H](O)[C@H]4O)[C@H]3O)CC[C@]3(C)C(=CCC4[C@@]5(C)CC[C@H](O[C@@H]6OC[C@@H](O)[C@H](O)[C@H]6O)[C@@](C)(C(=O)O)C5CC[C@]43C)[C@@H]2C1 (stereo partly drawn) [NCGC00384798-01] | 4 |
| C=C1[C@@H](C)[C@H]2[C@H](Cc3ccccc3)NC(=O)[C@]23OC(=O)/C=C/[C@H](O)CCC[C@@H](C)C/C=C/[C@H]3[C@@H]1O [Cytochalasin B] | 3 |
| Cc1cccc(NC(=O)c2ccc(C(F)(F)F)cc2C(=O)O)n1 [AF38469] | 2 |
| CCn1c(-c2nonc2N)nc2cncc(CNC3CCNCC3)c21 [SB-747651-A] | 1 |
| CC(=O)O[C@H]1C(=O)[C@]2(C)C(O)C[C@H]3OC[C@@]3(OC(C)=O)[C@H]2[C@H](OC(=O)c2ccccc2)[C@]2(O)C[C@H](O)C(C)=C1C2(C)C (stereo partly drawn) [NCGC00384655-01] | 2 |
| CC1(C)CC[C@]2(C(=O)O)CC[C@]3(C)C(=CC[C@@H]4[C@@]5(C)CC[C@H](O)C(C)(C)[C@@H]5CC[C@]43C)[C@@H]2C1 [Oleanolic acid] | 4 |
| O=C(NCc1cccc(O)c1)c1cc2cc(F)ccc2[nH]1 [KX1-004] | 1 |

| Compound | CC (curve class) |
| --- | --- |
| O=C(Nc1ccc2[nH]ncc2c1)C1CCC1 [Rhodblock 6] | 3 |
| Cc1cc2c(cc1CC(=O)c1sccc1S(=O)(=O)[N-]c1onc(C)c1Cl)OCO2.[Na+] [Sitaxenian sodium] | 2 |
| CC1(C)[C@@H](O[C@H]2O[C@H](C(=O)O)[C@@H](O)[C@H](O)[C@H]2O[C@@H]2O[C@H](C(=O)O)[C@@H](O)[C@H](O)[C@H]2O)CC[C@]2(C)[C@H]3C(=O)C=C4[C@@H]5C[C@@](C)(C(=O)O)CC[C@]5(C)CC[C@@]4(C)[C@]3(C)CC[C@@H]12.N [GLYCYRRHIZIC ACID. AMMONIUM SALT] | 2 |
| COc1cccc(CNC(=O)Nc2nc(-c3ccncc3)cs2)c1 [1-(3-methoxybenzyl)-3-(4-(pyridin-4-yl)thiazol-2-yl)urea] | 1 |
| COc1c(Nc2ncc(Cl)c(N[C@H]3[C@@H](C(N)=O)[C@@H]4C=C[C@H]3C4)n2)ccc2c1CC[C@@H](N1CCOCC1)CC2 [CEP-28122] | 1 |
| Cc1cc(Nc2cc(NC(=O)c3c(Cl)cccc3Cl)ccn2)nc(N)n1 [RO495] | 1 |
| C[C@@H]1CCN(C(=O)N2CCCC2)C[C@@H]1N(C)c1ncnc2[nH]ccc12 [PF-956980] | 3 |
| Brc1c(Br)c(Br)c2n[nH]nc2c1Br [TBB] | 2 |
| C[C@]12C[C@@H](O)[C@H]3[C@@H](CC[C@@H]4C[C@@H](O)CC[C@@]43CO)[C@@]1(O)CC[C@@H]2C1=CC(=O)OC1 [19-hydroxysarmentogenin] | 4 |
| COc1ccc(-c2c(C)c(C(=O)NN3CCCCC3)nn2-c2ccc(Cl)cc2Cl)cc1 [NIDA-41020] | 2 |
| CNS(=O)(=O)C[C@H]1CC[C@H](N(C)c2ncnc3[nH]ccc23)CC1 [Oclacitinib (PF-03394197), Oclacitinib] | 3 |
| CNCCC(Oc1ccc(C(F)(F)F)cc1)c1ccccc1 (stereo not drawn) [Fluoxetine hydrochloride] | 4 |
| O=C(NCc1cccc(O)c1)Nc1nc(-c2ccncc2)cs1 [RKI-1447] | 1 |
| CN1CCN(c2cccc(Nc3nc4c(-c5ccc(S(C)(=O)=O)cc5)cccn4n3)c2)CC1 [CEP-33779] | 1 |
| COc1cc2nc(-c3cc(F)ccc3O)nc(N[C@@H]3CNC[C@H]3C(C)(C)O)c2cc1OC [CCT-241533] | 3 |
| CCS(=O)(=O)N1CCN(c2ccc(Nc3ncc(C(N)=O)c(NC4CC4)n3)cc2)CC1 [Cerdulatinib] | 1 |
| C[C@@H]1O[C@@H](OC2C(O[C@H]3[C@H](O[C@H]4CC[C@@]5(C)C(CC[C@]6(C)C5CC=C5C7CC(C)(C)CC(O)[C@]7(C)CC[C@]56C)C4(C)C)O[C@H](C(=O)O)[C@@H](O)[C@@H]3O)OC(CO)C(O)C2O)[C@H](O)[C@H](O)[C@H]1O (stereo partly drawn) [NCGC00381003-01] | 2 |
| CCCCC1C(=O)N(c2ccccc2)N(c2ccc(O)cc2)C1=O (stereo not drawn) [OXYPHENBUTAZONE] | 2 |
| CC(C)CC(=O)OC1OC=C(CO[C@@H]2O[C@H](CO)[C@@H](O)[C@H](O)[C@H]2O)C2CC(O)C(O)(CO)C12 (stereo partly drawn) [NCGC00347879-02] | 4 |
| C/C=C/C(=O)C(C)C1=CC(=O)C2=C(OC34CC[C@H](O)C(C)(C)[C@@H]3CC[C@H](C)C4(C)C2)C1=O (stereo partly drawn) [podosporin A] | 4 |
